Laboratory results published in the supplement of paper PMC7752906.
Structures can show the parent of a compound that is named as a salt. This is one part of the list. Single values are uncertain here, since repeats match poorly.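 Test system: Schistosoma mansoni schistosomula, roughly 40 per well, imaged in bright field over time and compared with wells given 0.1% DMSO. Distance read-out: the paper calls a drug a hit when its Mahalanobis distance is at least 2.47, three standard deviations above the DMSO control mean. Degeneracy is the share of worms classified opaque.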 Numbered stars: 1 amine (or outer) side, 2 acyl side, 3 side chain; on linkers, the order of the positions; unused ones are H or OH. Bridge positions count the residues as written; N and C are the ends. Square brackets hold non-standard residues; d marks the D form. Peptide text beside a SMILES is read from it. * marks the point of attachment. X1 = NC1=N[C@@H]([C@H](N[*:1])C(=O)[*:2])C[C@H](O)N1; ΔAla(Z-3-ureido) = NC(=O)N/C=C(\N)C(=O)O; β3hOrn = NCCC[C@H](N)CC(=O)*; Dap = NC[C@H](N)C(=O)O

The compounds below were run on Schistosoma mansoni schistosomula (assay: degeneracy (percent of somules classified as degenerate/opaque); higher = more parasite degeneration/death; extreme values may be limits of the assay). Settings: 10 µM; 72 h.

Row | Structure (SMILES) | degeneracy [%]
1 | COc1ccccc1O [Guaiacol] | 11.1
2 | CCCCC(C)(O)C/C=C/[C@H]1[C@H](O)CC(=O)[C@@H]1CCCCCCC(=O)OC (mixture of isomers) [Misoprostol] | 1.85
3 | COc1ccc(C(=O)c2ccc(C)cc2)c(O)c1 [Mexeneone] | 16.2
4 | NC(=O)NC(=O)Cc1ccccc1 [Phenacemide] | 12.2
5 | CN1[C@@H](CC(=O)c2ccccc2)CCC[C@H]1C[C@H](O)c1ccccc1 [Lobeline] | 7.69
6 | OC[C@@H](O)[C@@H](O[C@@H]1O[C@H](CO)[C@H](O)[C@H](O)[C@H]1O)[C@H](O)[C@@H](O)CO [D-lactitol Monohydrate] | 2.44
7 | OC[C@@H](O)[C@@H](O[C@@H]1O[C@H](CO)[C@H](O)[C@H](O)[C@H]1O)[C@H](O)[C@@H](O)CO [Lacitol] | 3.45
8 | CC(=O)OCC(=O)[C@@]12N=C(C)O[C@@H]1C[C@H]1[C@@H]3CCC4=CC(=O)C=C[C@]4(C)[C@H]3[C@@H](O)C[C@@]12C [Deflazacort] | 3.57
9 | OCc1cc(C(O)CNCCCCCCOCCCCc2ccccc2)ccc1O (stereo unspecified) [Salmeterol] | 39.3
10 | CC(=O)Nc1ccc(CC(=O)O)cc1 [Actarit] | 0
11 | Cc1nc2n(c(=O)c1CCN1CCC(c3noc4cc(F)ccc34)CC1)CCCC2 [Risperidone] | 0
12 | O=S(=O)(O)CCS [Mesna] | 3.03
13 | CCn1cc(C(=O)O)c(=O)c2cnc(N3CCCC3)nc21 [Piromidic Acid] | 2.44
14 | CCCCCCCCCCCCC[N+](C)(C)Cc1ccccc1 [Benzalkonium Chloride] | 100
15 | CC(C)(C)NC[C@H](O)c1ccc(O)c(CO)c1 [Levalbuterol Hydrochloride] | 11.4
16 | O=C(O)c1cc(-c2ccc(F)cc2F)ccc1O [Diflunisal] | 11.5
17 | CCCCNC(=O)NS(=O)(=O)c1ccc(C)cc1 [Tolbutamide] | 15.6
18 | CC(=O)[C@H]1CC[C@H]2[C@@H]3C[C@H](C)C4=CC(=O)CC[C@]4(C)[C@H]3[C@@H](O)C[C@]12C [Medrysone] | 4.35
19 | CCOC(=O)OC(C)OC1=C(C(=O)Nc2ccccn2)N(C)S(=O)(=O)c2ccccc21 (stereo unspecified) [Ampiroxicam] | 7.5
20 | CC1(C)NC(=O)N(c2ccc([N+](=O)[O-])c(C(F)(F)F)c2)C1=O [Nilutamide] | 2.33
21 | COC(=O)[C@@H]1[C@H]2C[C@H]3c4[nH]c5ccccc5c4CCN3C[C@@H]2CC[C@@H]1O [Yohimbine] | 61.5
22 | COC(=O)[C@@H]1[C@H]2C[C@H]3c4[nH]c5ccccc5c4CCN3C[C@@H]2CC[C@@H]1O [Yohimbine Hydrochloride] | 17.2
23 | CC(C)NCC(O)COc1cccc2ccccc12 (stereo unspecified) [Propranolol] | 3.57

Row | Structure (SMILES) | degeneracy [%]
24 | CCCCOc1cc(C(=O)NCCN(CC)CC)c2ccccc2n1 [Dibucaine] | 8
25 | CC[C@H]1OC(=O)[C@H](C)C(=O)[C@H](C)[C@@H](O[C@@H]2O[C@H](C)C[C@H](N(C)C)[C@H]2O)[C@](C)(OC)C[C@@H](C)C(=O)[C@H](C)[C@H]2N(CCCCn3cnc(-c4cccnc4)c3)C(=O)O[C@]12C [Telithromycin] | 0
26 | O=P(O)(O)C(Cl)(Cl)P(=O)(O)O [Clodronic Acid] | 14.3
27 | O=C1CCc2cc(OCCCCc3nnnn3C3CCCCC3)ccc2N1 [Cilostazol] | 7.14
28 | CCS(=O)(=O)CCn1c([N+](=O)[O-])cnc1C [Tinidazole] | 6.45
29 | Fc1ccc([C@@H]2CCNC[C@H]2COc2ccc3c(c2)OCO3)cc1 [Paroxetine] | 100
30 | Nc1nc(O)c2ncn(CCC(CO)CO)c2n1 [Penciclovir] | 10
31 | O=c1[nH]cnc2c1ncn2[C@H]1CC[C@@H](CO)O1 [Didanosine] | 5.88
32 | NCCC[C@H](N)CC(=O)N[C@H]1CNC(=O)[C@H]([C@H]2C[C@H](O)NC(N)=N2)NC(=O)/C(=C/NC(N)=O)NC(=O)[C@H](CO)NC(=O)[C@H](CO)NC1=O [Viomycin Sulfate] (β3hOrn-[Dap]SS[ΔAla(Z-3-ureido)][X1]; lactam 1-C) | 6.9
33 | NC(CO)C(=O)NNCc1ccc(O)c(O)c1O (stereo unspecified) [Benserazide] | 9.52
34 | C[C@H]1COc2c(N3CCN(C)CC3)c(F)cc3c(=O)c(C(=O)O)cn1c23 [Levofloxacin] | 4.17
35 | C[N+](C)(C)CCO.[Cl-] [Choline Chloride] | 13.2
36 | CN1CCC(OC(c2ccccc2)c2ccccc2)CC1 [Diphenylpyraline Hydrochloride] | 7.69
37 | O=C(Oc1cccc2cccnc12)c1ccccc1 [benzoxiquine] | 100
38 | CCOC(=O)[C@H](CCc1ccccc1)N[C@@H](C)C(=O)N1Cc2cc(OC)c(OC)cc2C[C@H]1C(=O)O [Moexipril Hydrochloride] | 8.7
39 | Clc1ccc(Nc2nnc(Cc3ccncc3)c3ccccc23)cc1 [Vatalanib Dihydrochloride] | 21.4
40 | O=C(O)CSCC(=O)NC1CCSC1=O (stereo unspecified) [Erdosteine] | 0
41 | NCC[C@H](O)C(=O)N[C@@H]1C[C@H](N)[C@@H](O[C@H]2O[C@H](CN)[C@@H](O)[C@H](O)[C@H]2O)[C@H](O)[C@H]1O[C@H]1O[C@H](CO)[C@@H](O)[C@H](N)[C@H]1O [Amikacin Sulfate] | 0
42 | CC(C)C(=O)Nc1ccc([N+](=O)[O-])c(C(F)(F)F)c1 [Flutamide] | 5.26
43 | C[C@H]1O[C@@H](O[C@H]2CC[C@@]3(C)[C@H](CC[C@@H]4[C@@H]3C[C@@H](O)[C@]3(C)[C@@H](C5=CC(=O)OC5)CC[C@]43O)C2)C[C@H](O)[C@@H]1O[C@H]1C[C@H](O)[C@H](O[C@H]2C[C@H](O)[C@H](O[C@@H]3O[C@H](CO)[C@@H](O)[C@H](O)[C@H]3O)[C@@H](C)O2)[C@@H](C)O1 [Deslanoside] | 0
44 | Cn1cnc([N+](=O)[O-])c1Sc1ncnc2[nH]cnc12 [Azathioprine] | 8.57
45 | CC(=O)OCC[N+](C)(C)C [Acetylcholine] | 17.4
46 | OCCN1C[C@H](O)[C@@H](O)[C@H](O)[C@H]1CO [Miglitol] | 0

Copied from the list.
In degeneracy [%], O=C(Oc1cccc2cccnc12)c1ccccc1 [benzoxiquine] is listed with 100
In degeneracy [%], C[C@H]1O[C@@H](O[C@H]2CC[C@@]3(C)[C@H](CC[C@@H]4[C@@H]3C[C@@H](O)[C@]3(C)[C@@H](C5=CC(=O)OC5)CC[C@]43O)C2)C[C@H](O)[C@@H]1O[C@H]1C[C@H](O)[C@H](O[C@H]2C[C@H](O)[C@H](O[C@@H]3O[C@H](CO)[C@@H](O)[C@H](O)[C@H]3O)[C@@H](C)O2)[C@@H](C)O1 [Deslanoside] is listed with 0
